Data as given in article PMC12550018, “High-resolution native electrophoresis in-gel activity assay reveals biological insights of medium-chain fatty acyl-CoA dehydrogenase deficiency” (Scientific Reports, 2025).
Residue numbers refer to the chain shown, from its start. Names and notes keep the numbering of the source. Results are given in words; binding and its absence hold for the method and conditions named. Some binding calls cover weakened binding; strength is not graded here.

Legend:
[1] = biological target: Endogenous MCAD of human skin fibroblasts (human (endogenous in skin fibroblasts)) (UniProt P11310); experiment: native gel or EMSA; hrCN-PAGE (5-16% gradient) of mitochondrial enriched fractions of human skin fibroblasts; lanes cut into 60 slices, trypsin digestion, LC-MS/MS migration profiles
[2] = biological target: MCAD variant R206C overexpressed in COS-7 cells (human) (UniProt P11310); experiment: native gel or EMSA; hrCN-PAGE at pH 7.0 of lysates / mitochondrial fractions of transfected COS-7 cells; C8-CoA:NBT in-gel activity staining
[3] = biological target: MCAD variant Y67H overexpressed in COS-7 cells (human) (UniProt P11310); experiment: as above
[4] = biological target: MCAD wild type overexpressed in COS-7 cells (human) (UniProt P11310); experiment: as above
[5] = biological target: MCAD variant K329E overexpressed in COS-7 cells (human) (UniProt P11310); experiment: as above

B1: Endogenous MCAD of human skin fibroblasts (enzyme, UniProt P11310-1 26-421)
chain: KANRQREPGLGFSFEFTEQQKEFQATARKFAREEIIPVAAEYDKTGEYPVPLIRRAWELGLMNTHIPENCGGLGLGTFDACLISEELAYGCTGVQTAIEGNSLGQMPIIIAGNDQQKKKYLGRMTEEPLMCAYCVTEPGAGSDVAGIKTKAEKKGDEYIINGQKMWITNGGKANWYFLLARSDPDPKAPANKAFTGFIVEADTPGIQIGRKELNMGQRCSDTRGIVFEDVKVPKENVLIGDGAGFKVAMGAFDKTRPVVAAGAVGLAQRALDEATKYALERKTFGKLLVEHQAISFMLAEMAMKVELARMSYQRAAWEVDSGRRNTYYASIAKAFAGDIANQLATDAVQILGGNGFNTEYPVEKLMRDAKIYQIYEGTSQIQRLIVAREHIDKYKN
Q: Which binding [1] does the source give for B1 here?
A: The binding was “binds”.

B2: MCAD variant p.R206C, human recombinant (enzyme, UniProt P11310-1 26-421, looked up)
chain: B1 chain with R181C
notes: MCAD, human, encoded by ACADM, clinically relevant variant p.R206C made by site-directed mutagenesis in pMALc2X; masses fit the mature protein (26-421); The residue number counts on the precursor; Native MS: only three FAD per tetramer; also called MCAD R206C; not shown: MBP, N-terminal, cleaved
Q: For B2, which binding [2] is on record?
A: Its binding is “binds”.

B3: MCAD variant p.Y67H, human recombinant (enzyme, UniProt P11310-1 26-421, looked up)
chain: B1 chain with Y42H
notes: MCAD, human, encoded by ACADM, clinically relevant variant p.Y67H made by site-directed mutagenesis in pMALc2X; masses fit the mature protein (26-421); The residue number counts on the precursor; also called MCAD Y67H; not shown: MBP, N-terminal, cleaved
Q: For B3, which binding [3] is on record?
A: The binding was “binds”.

B4: MCAD wild type overexpressed in COS-7 cells (enzyme, UniProt P11310-1 26-421)
chain: B1 chain
Q: Which binding [4] does the source give for B4 here?
A: The binding was “binds”.

B5: MCAD variant p.K329E, human recombinant (enzyme, UniProt P11310-1 26-421, looked up)
chain: B1 chain with K304E
notes: MCAD, human, encoded by ACADM, clinically relevant variant p.K329E made by site-directed mutagenesis in pMALc2X; masses fit the mature protein (26-421); The residue number counts on the precursor; also called MCAD K329E; not shown: MBP, N-terminal, cleaved
Q: For B5, which binding [5] is on record?
A: The binding was “binds”.
